Laboratory results reported in the supplement of paper PMC12823440, “Inhibitors supercharge kinase turnover through native proteolytic circuits” (Nature, 2025).
Where a name gives a salt, the structure may show the parent alone. This is one part of the list. The calls rarely recur for the same compound in another form.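 Kinases, fused to nanoluciferase, were expressed in K562 cells; luminescence was measured every 4 h from 2 to 18 h as percent of control (DMSO = 100%, positive control = 0%). A time point is decreased if signal falls significantly (2 sigma). Hits were called by the authors by a rule that is not shown; the count of time points alone does not decide it.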

Sequences of proteins named here, by UniProt entry; tags and fusion partners are left off. A change or cut given only in a name is not applied to a line headed by its entry.
UniProt Q9Y616: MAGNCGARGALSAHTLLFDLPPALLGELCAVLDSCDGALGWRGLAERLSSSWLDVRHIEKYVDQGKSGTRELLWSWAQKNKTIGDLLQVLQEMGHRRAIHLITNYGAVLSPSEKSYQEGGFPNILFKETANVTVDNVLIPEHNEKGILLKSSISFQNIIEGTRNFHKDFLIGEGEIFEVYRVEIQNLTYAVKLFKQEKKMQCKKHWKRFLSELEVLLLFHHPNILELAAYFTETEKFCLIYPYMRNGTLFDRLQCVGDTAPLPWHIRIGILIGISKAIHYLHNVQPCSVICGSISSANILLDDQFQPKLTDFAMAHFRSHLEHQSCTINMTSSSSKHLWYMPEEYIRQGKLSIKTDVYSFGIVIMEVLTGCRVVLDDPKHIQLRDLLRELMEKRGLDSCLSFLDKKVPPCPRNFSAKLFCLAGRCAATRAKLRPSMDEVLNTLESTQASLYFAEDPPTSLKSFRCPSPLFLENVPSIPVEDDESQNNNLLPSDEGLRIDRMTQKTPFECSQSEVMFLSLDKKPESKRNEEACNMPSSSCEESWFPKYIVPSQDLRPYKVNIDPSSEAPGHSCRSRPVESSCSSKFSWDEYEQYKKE
UniProt P23458: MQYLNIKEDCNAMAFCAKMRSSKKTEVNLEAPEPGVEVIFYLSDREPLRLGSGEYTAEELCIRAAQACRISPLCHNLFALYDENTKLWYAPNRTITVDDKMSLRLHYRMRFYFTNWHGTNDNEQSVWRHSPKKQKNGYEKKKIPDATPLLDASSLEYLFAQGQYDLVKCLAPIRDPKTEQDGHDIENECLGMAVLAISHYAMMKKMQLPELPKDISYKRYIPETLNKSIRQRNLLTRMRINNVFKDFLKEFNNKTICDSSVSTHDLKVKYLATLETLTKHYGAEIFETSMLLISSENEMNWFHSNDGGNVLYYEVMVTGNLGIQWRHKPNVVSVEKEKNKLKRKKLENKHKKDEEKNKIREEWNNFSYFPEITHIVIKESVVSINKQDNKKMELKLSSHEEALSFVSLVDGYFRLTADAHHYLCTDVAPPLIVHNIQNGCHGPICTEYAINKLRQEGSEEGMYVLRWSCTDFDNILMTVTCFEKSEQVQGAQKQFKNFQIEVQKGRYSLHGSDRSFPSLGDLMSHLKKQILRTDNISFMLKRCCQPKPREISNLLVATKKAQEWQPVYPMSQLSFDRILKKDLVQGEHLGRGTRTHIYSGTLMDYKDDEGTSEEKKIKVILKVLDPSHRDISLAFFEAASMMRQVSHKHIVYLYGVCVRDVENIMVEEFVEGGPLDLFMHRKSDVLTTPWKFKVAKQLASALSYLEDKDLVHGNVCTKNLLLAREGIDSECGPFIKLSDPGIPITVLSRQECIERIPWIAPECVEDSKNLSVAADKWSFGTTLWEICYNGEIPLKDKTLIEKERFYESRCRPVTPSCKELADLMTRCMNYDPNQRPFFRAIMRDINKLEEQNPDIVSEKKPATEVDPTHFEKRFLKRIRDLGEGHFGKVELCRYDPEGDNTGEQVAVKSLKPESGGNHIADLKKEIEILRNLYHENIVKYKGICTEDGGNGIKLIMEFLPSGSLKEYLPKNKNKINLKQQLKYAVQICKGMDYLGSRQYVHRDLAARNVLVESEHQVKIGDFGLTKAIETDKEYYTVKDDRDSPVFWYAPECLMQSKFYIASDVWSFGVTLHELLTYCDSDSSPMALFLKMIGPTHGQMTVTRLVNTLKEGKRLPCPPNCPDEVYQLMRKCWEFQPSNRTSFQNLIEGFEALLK
UniProt P06239: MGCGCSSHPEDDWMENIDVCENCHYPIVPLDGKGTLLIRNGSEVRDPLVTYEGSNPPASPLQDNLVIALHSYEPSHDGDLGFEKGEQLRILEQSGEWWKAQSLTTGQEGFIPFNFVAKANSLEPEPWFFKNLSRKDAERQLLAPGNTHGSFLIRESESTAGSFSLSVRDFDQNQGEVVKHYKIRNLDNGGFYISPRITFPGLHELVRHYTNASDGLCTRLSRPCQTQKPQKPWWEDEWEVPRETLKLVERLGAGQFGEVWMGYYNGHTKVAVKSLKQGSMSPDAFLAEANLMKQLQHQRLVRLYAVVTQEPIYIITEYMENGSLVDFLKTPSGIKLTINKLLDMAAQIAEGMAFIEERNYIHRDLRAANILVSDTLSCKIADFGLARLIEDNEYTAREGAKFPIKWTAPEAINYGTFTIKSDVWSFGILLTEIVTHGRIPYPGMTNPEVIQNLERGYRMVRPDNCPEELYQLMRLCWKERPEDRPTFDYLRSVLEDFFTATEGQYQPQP
UniProt P53667: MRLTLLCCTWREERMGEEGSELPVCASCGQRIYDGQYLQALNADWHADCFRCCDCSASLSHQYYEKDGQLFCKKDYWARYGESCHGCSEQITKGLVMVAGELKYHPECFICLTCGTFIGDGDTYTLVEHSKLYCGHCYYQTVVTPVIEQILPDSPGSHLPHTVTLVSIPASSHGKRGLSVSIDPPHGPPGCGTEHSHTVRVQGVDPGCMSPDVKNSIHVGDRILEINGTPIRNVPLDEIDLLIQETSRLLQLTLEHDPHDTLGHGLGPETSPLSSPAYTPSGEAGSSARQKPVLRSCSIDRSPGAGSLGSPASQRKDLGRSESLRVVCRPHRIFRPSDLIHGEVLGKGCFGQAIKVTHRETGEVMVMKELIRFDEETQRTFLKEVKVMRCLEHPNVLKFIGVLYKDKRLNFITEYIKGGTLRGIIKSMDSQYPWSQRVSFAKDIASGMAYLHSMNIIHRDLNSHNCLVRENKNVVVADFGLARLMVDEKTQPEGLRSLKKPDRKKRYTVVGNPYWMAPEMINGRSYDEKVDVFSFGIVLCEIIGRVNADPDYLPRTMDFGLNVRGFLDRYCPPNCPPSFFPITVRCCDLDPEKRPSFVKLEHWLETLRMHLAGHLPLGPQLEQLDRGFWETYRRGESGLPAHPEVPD
UniProt P53671: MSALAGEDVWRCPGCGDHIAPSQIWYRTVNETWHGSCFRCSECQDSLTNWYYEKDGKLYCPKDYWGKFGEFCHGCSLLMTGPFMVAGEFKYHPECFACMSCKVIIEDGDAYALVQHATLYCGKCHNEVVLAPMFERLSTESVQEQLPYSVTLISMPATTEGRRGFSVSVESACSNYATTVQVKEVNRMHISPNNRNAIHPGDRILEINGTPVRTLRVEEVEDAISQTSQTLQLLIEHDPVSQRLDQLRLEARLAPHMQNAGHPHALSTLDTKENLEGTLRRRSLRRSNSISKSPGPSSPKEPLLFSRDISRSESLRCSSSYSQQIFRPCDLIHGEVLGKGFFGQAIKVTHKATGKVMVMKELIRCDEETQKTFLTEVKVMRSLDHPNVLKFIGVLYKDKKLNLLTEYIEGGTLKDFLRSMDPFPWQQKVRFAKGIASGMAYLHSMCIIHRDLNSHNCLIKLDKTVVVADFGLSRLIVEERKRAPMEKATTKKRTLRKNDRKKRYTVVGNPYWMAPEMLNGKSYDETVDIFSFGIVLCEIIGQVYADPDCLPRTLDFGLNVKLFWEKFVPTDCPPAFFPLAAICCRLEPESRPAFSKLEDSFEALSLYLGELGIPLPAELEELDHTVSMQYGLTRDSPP
UniProt Q8IWU2: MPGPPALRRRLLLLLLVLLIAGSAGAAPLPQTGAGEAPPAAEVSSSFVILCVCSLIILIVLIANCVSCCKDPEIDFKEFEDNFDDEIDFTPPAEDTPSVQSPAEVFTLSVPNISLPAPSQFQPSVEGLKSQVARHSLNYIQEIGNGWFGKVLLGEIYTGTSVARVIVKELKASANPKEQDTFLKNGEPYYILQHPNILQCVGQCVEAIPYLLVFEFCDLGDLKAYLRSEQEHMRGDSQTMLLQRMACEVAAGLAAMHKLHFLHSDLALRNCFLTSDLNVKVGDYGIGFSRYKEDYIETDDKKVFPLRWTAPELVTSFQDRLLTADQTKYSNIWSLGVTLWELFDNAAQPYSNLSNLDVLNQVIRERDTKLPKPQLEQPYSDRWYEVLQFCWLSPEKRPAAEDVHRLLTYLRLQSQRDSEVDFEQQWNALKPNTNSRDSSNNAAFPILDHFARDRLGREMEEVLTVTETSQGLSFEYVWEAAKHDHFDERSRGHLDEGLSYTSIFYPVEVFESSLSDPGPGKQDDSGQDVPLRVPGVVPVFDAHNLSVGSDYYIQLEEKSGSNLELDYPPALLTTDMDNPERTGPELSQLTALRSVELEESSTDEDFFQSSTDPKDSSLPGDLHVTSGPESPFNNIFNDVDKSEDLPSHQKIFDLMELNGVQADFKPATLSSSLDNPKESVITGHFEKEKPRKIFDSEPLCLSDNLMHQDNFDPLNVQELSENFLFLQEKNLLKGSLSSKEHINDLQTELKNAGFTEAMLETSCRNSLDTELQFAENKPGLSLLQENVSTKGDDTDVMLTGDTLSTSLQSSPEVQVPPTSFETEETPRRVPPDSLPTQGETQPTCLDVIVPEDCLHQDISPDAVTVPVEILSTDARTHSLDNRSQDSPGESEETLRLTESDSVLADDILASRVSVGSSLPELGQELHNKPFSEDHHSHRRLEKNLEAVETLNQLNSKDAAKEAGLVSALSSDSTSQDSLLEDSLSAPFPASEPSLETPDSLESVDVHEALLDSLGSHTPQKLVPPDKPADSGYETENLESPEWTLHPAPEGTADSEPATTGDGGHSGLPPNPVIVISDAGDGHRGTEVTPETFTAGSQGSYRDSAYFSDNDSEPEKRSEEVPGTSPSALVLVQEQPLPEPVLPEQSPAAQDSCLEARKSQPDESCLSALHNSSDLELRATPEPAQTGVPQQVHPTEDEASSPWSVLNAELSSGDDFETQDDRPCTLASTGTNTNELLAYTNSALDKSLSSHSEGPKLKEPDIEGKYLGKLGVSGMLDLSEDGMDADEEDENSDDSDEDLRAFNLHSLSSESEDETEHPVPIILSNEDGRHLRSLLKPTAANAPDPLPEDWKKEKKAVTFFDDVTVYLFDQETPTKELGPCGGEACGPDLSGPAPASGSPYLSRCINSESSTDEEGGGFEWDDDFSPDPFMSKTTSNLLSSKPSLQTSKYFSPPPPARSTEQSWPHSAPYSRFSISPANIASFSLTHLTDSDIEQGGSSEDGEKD
UniProt P07948: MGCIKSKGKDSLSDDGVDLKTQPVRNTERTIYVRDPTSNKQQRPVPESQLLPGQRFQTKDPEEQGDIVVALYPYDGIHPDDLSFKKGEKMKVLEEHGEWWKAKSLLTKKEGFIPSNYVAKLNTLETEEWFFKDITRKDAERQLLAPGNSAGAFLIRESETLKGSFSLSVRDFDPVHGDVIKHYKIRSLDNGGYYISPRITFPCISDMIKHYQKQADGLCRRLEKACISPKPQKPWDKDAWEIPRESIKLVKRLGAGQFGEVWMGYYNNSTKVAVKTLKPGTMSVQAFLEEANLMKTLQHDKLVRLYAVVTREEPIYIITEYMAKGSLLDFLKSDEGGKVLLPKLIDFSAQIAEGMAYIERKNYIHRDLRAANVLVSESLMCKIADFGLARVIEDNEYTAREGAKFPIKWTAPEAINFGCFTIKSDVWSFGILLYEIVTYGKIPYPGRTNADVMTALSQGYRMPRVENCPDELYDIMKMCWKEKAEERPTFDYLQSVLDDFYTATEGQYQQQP
UniProt Q12851: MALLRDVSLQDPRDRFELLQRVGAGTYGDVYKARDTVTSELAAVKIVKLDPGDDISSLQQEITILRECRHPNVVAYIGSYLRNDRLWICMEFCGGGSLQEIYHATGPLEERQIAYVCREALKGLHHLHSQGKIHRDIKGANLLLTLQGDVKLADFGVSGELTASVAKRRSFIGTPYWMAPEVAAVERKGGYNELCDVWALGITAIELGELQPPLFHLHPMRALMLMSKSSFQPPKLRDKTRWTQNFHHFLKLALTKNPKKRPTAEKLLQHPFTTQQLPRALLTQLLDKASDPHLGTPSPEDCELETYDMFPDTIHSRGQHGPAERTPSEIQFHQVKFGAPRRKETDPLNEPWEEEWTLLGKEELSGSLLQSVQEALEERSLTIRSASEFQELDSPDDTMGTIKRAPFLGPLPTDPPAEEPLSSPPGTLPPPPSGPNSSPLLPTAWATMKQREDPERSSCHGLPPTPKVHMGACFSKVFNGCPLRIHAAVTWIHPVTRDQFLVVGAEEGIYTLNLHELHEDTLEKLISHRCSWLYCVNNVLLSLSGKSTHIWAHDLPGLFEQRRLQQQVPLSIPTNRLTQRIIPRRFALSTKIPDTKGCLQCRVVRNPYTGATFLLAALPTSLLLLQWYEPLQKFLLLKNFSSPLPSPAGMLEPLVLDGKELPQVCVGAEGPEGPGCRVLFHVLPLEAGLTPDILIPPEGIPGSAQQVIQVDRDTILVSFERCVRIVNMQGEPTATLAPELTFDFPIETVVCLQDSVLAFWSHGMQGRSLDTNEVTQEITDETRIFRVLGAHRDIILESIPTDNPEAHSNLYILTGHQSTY

Experiments:
Assay in all cases: kinase-Nluc reporter destabilization hit call (1 = scored as downregulated) (binary); higher = compound decreases kinase abundance
Details in all cases: K562; 2-18 h
IRAK3 = IRAK3 (UniProt Q9Y616)
JAK1 = JAK1 (UniProt P23458)
LCK = LCK (UniProt P06239)
LIMK1 = LIMK1 (UniProt P53667)
LIMK2 = LIMK2 (UniProt P53671)
LMTK2 = LMTK2 (UniProt Q8IWU2)
LYN = LYN (UniProt P07948)
MAP2K1 = MAP2K1 (UniProt Q02750)
MAP2K2 = MAP2K2 (UniProt P36507)
MAP4K2 = MAP4K2 (UniProt Q12851)

Measured: kinase-Nluc reporter destabilization hit call

COc1c(OCCCN2CCOCC2)ccc2c3n(c(=NC(=O)c4cnc(N)nc4)nc12)CCN3 [Copanlisib (dihydrochloride)] (10 µM)
inactive: IRAK3 = 0 | JAK1 = 0 | LCK 0 | LIMK1 = 0 | LIMK2 = 0 | LMTK2 = 0 | LYN 0 | MAP2K1 = 0 | MAP2K2 = 0 | MAP4K2 = 0

COc1cc(/C=C/c2ccc(NC(=O)/C=C/c3cc(OC)c(OC)c(OC)c3)cc2)cc(OC)c1 (2.5 µM)
inactive: IRAK3 = 0 | JAK1 = 0 | LCK 0 | LIMK1 = 0 | LIMK2 = 0 | LMTK2 = 0 | LYN 0 | MAP2K1 = 0 | MAP2K2 = 0 | MAP4K2 = 0

CC(C)Cn1cc(C#N)c2cc(Oc3ccc(NC(=O)[C@@H]4CCCN4)cc3)ccc21 (10 µM)
inactive: IRAK3 = 0 | JAK1 = 0 | LCK 0 | LIMK1 = 0 | LIMK2 = 0 | LMTK2 = 0 | LYN 0 | MAP2K1 = 0 | MAP2K2 = 0 | MAP4K2 = 0

CC(=O)Nc1nc(C)c(-c2cc3c(c(S(C)(=O)=O)c2)C(=O)N([C@@H](C)C2CC2)C3)s1 (2.5 µM)
inactive: IRAK3 = 0 | JAK1 = 0 | LCK 0 | LIMK1 = 0 | LIMK2 = 0 | LMTK2 = 0 | LYN 0 | MAP2K1 = 0 | MAP2K2 = 0 | MAP4K2 = 0

O=C(Nc1cc(Cl)cc(Cl)c1)Nc1cc(Cl)cc(Cl)c1 (10 µM)
inactive: IRAK3 = 0 | JAK1 = 0 | LCK 0 | LIMK1 = 0 | LIMK2 = 0 | LMTK2 = 0 | LYN 0 | MAP2K1 = 0 | MAP2K2 = 0 | MAP4K2 = 0

CC(C)c1cnn2c(NCc3ccccc3)cc(NCCCCCCN)nc12 [BS-181 (hydrochloride)] (10 µM)
inactive: IRAK3 = 0 | JAK1 = 0 | LCK 0 | LIMK1 = 0 | LIMK2 = 0 | LMTK2 = 0 | LYN 0 | MAP2K1 = 0 | MAP2K2 = 0 | MAP4K2 = 0

O=C(Nc1ncc(SCCN2CCCC2)s1)[C@]1(c2ccc(S(=O)(=O)C3CC3)cc2)C[C@H]1C1CCCCC1 [Globalagliatin] (2.5 µM)
inactive: IRAK3 = 0 | JAK1 = 0 | LCK 0 | LIMK1 = 0 | LIMK2 = 0 | LMTK2 = 0 | LYN 0 | MAP2K1 = 0 | MAP2K2 = 0 | MAP4K2 = 0

CCCC[C@H](CO)Nc1nc(NC)ncc1OC [Interferon receptor inducer-1] (10 µM)
inactive: IRAK3 = 0 | JAK1 = 0 | LCK 0 | LIMK1 = 0 | LIMK2 = 0 | LMTK2 = 0 | LYN 0 | MAP2K1 = 0 | MAP2K2 = 0 | MAP4K2 = 0

CNC[C@@H](NC(=O)c1ccc(-c2nc([C@H]3CC[C@H](O)[C@@H](F)C3)cnc2N)cc1F)c1cc(F)cc(Br)c1 [Rineterkib] (10 µM)
inactive: IRAK3 = 0 | JAK1 = 0 | LCK 0 | LIMK1 = 0 | LIMK2 = 0 | LMTK2 = 0 | LYN 0 | MAP2K1 = 0 | MAP2K2 = 0 | MAP4K2 = 0

CNC(=O)Nc1cc(Oc2cncc(C)c2)c(-c2ccc(OCC(C)(C)O)nc2)cn1 (2.5 µM)
inactive: IRAK3 = 0 | JAK1 = 0 | LCK 0 | LIMK1 = 0 | LIMK2 = 0 | LMTK2 = 0 | LYN 0 | MAP2K1 = 0 | MAP2K2 = 0 | MAP4K2 = 0

Cn1c(=O)c(Oc2ccc(F)cc2F)cc2cnc(NC(CCO)CCO)nc21 [Pamapimod] (10 µM)
inactive: IRAK3 = 0 | JAK1 = 0 | LCK 0 | LIMK1 = 0 | LIMK2 = 0 | LMTK2 = 0 | LYN 0 | MAP2K1 = 0 | MAP2K2 = 0 | MAP4K2 = 0

COc1ccc2c(c1)C[C@H](C(=O)Nc1ccc(-c3cn[nH]c3)cc1OCCN(C)C)CO2 [Chroman 1] (10 µM)
inactive: IRAK3 = 0 | JAK1 = 0 | LCK 0 | LIMK1 = 0 | LIMK2 = 0 | LMTK2 = 0 | LYN 0 | MAP2K1 = 0 | MAP2K2 = 0 | MAP4K2 = 0

Reprinted from above, 2 compounds:
CNC[C@@H](NC(=O)c1ccc(-c2nc([C@H]3CC[C@H](O)[C@@H](F)C3)cnc2N)cc1F)c1cc(F)cc(Br)c1 [Rineterkib] (10 µM)
inactive: IRAK3 = 0 | JAK1 = 0 | LCK 0 | LIMK1 = 0 | LIMK2 = 0 | LMTK2 = 0 | LYN 0 | MAP2K1 = 0 | MAP2K2 = 0 | MAP4K2 = 0

CNC(=O)Nc1cc(Oc2cncc(C)c2)c(-c2ccc(OCC(C)(C)O)nc2)cn1 (2.5 µM)
inactive: IRAK3 = 0 | JAK1 = 0 | LCK 0 | LIMK1 = 0 | LIMK2 = 0 | LMTK2 = 0 | LYN 0 | MAP2K1 = 0 | MAP2K2 = 0 | MAP4K2 = 0

Further results

Cc1occ2c1C(=O)c1c(O)ccc(O)c1C2 (2.5 µM)
inactive: IRAK3 = 0 | JAK1 = 0 | LCK 0 | LIMK1 = 0 | LIMK2 = 0 | LMTK2 = 0 | LYN 0 | MAP2K1 = 0 | MAP2K2 = 0 | MAP4K2 = 0

CCS(=O)(=O)c1ccc(Oc2cc(O[C@@H](C)CO)cc(C(=O)Nc3ccn(C)n3)c2)cn1 (10 µM)
inactive: IRAK3 = 0 | JAK1 = 0 | LCK 0 | LIMK1 = 0 | LIMK2 = 0 | LMTK2 = 0 | LYN 0 | MAP2K1 = 0 | MAP2K2 = 0 | MAP4K2 = 0

CN(C)CCCNc1ccn2ncc(-c3ccc4c(c3)OCO4)c2n1 (10 µM)
inactive: IRAK3 = 0 | JAK1 = 0 | LCK 0 | LIMK1 = 0 | LIMK2 = 0 | LMTK2 = 0 | LYN 0 | MAP2K1 = 0 | MAP2K2 = 0 | MAP4K2 = 0

O=C1NCCSc2c1sc1ccc(O)cc21 (2.5 µM)
active: LMTK2 = 1
inactive: IRAK3 = 0 | JAK1 = 0 | LCK 0 | LIMK1 = 0 | LIMK2 = 0 | LYN 0 | MAP2K1 = 0 | MAP2K2 = 0 | MAP4K2 = 0

CNC(=O)c1nnc(NC(=O)C2CC2)cc1Nc1cccc(-c2ncn(C)n2)c1OC [Deucravacitinib] (10 µM)
inactive: IRAK3 = 0 | JAK1 = 0 | LCK 0 | LIMK1 = 0 | LIMK2 = 0 | LMTK2 = 0 | LYN 0 | MAP2K1 = 0 | MAP2K2 = 0 | MAP4K2 = 0

Cc1cccc(Cn2nc(C)c3c(NC(=O)c4csc5c(N)ncnc45)cccc32)n1 (10 µM)
inactive: IRAK3 = 0 | JAK1 = 0 | LCK 0 | LIMK1 = 0 | LIMK2 = 0 | LMTK2 = 0 | LYN 0 | MAP2K1 = 0 | MAP2K2 = 0 | MAP4K2 = 0

CNC(=O)c1c(C)oc2cc(Oc3ncnc4cc(OC)c(OC)cc34)ccc12 [Fruquintinib] (10 µM)
inactive: IRAK3 = 0 | JAK1 = 0 | LCK 0 | LIMK1 = 0 | LIMK2 = 0 | LMTK2 = 0 | LYN 0 | MAP2K1 = 0 | MAP2K2 = 0 | MAP4K2 = 0

C=CC(=O)Nc1cccc(Oc2nc(Nc3ccc(N4CCN(C)CC4)cc3)nc3ccsc23)c1 [Olmutinib] (2.5 µM)
inactive: IRAK3 = 0 | JAK1 = 0 | LCK 0 | LIMK1 = 0 | LIMK2 = 0 | LMTK2 = 0 | LYN 0 | MAP2K1 = 0 | MAP2K2 = 0 | MAP4K2 = 0

C[C@@H]1CN(Cc2cn[nH]c2-c2ccc(C#N)cc2)CCN1c1ccc(C(F)(F)F)cn1 (2.5 µM)
inactive: IRAK3 = 0 | JAK1 = 0 | LCK 0 | LIMK1 = 0 | LIMK2 = 0 | LMTK2 = 0 | LYN 0 | MAP2K1 = 0 | MAP2K2 = 0 | MAP4K2 = 0

COc1ccc(S(=O)(=O)N(CCO)c2ccccc2CN(C)CC=Cc2ccc(Cl)cc2)cc1 (2.5 µM)
inactive: IRAK3 = 0 | JAK1 = 0 | LCK 0 | LIMK1 = 0 | LIMK2 = 0 | LMTK2 = 0 | LYN 0 | MAP2K1 = 0 | MAP2K2 = 0 | MAP4K2 = 0

Cc1ccc(-c2csc(Cn3nc(CC4OCCCO4)c4ccccc4c3=O)n2)cc1 (10 µM)
inactive: IRAK3 = 0 | JAK1 = 0 | LCK 0 | LIMK1 = 0 | LIMK2 = 0 | LMTK2 = 0 | LYN 0 | MAP2K1 = 0 | MAP2K2 = 0 | MAP4K2 = 0

CC1=C(C(=O)Nc2ccc3[nH]ncc3c2)C(c2ccc(F)c(C(=O)NCc3ccccn3)c2)NC(=O)N1 (stereo not given) (10 µM)
inactive: IRAK3 = 0 | JAK1 = 0 | LCK 0 | LIMK1 = 0 | LIMK2 = 0 | LMTK2 = 0 | LYN 0 | MAP2K1 = 0 | MAP2K2 = 0 | MAP4K2 = 0

O=c1cc(-c2ccc(O)cc2)oc2cc(O)c(O)c(O)c12 [Scutellarein] (10 µM)
inactive: IRAK3 = 0 | JAK1 = 0 | LCK 0 | LIMK1 = 0 | LIMK2 = 0 | LMTK2 = 0 | LYN 0 | MAP2K1 = 0 | MAP2K2 = 0 | MAP4K2 = 0

CCCCCC1CC1CC1CC1CCCCCCCC(=O)O (stereo not given) (10 µM)
inactive: IRAK3 = 0 | JAK1 = 0 | LCK 0 | LIMK1 = 0 | LIMK2 = 0 | LMTK2 = 0 | LYN 0 | MAP2K1 = 0 | MAP2K2 = 0 | MAP4K2 = 0

C=CC(=O)N1CCC[C@@H](n2c(=O)n(-c3ccc(Oc4ccccc4)cc3)c3c(N)nccc32)C1 [Tolebrutinib] (10 µM)
inactive: IRAK3 = 0 | JAK1 = 0 | LCK 0 | LIMK1 = 0 | LIMK2 = 0 | LMTK2 = 0 | LYN 0 | MAP2K1 = 0 | MAP2K2 = 0 | MAP4K2 = 0

C[C@@H](Nc1cc(F)cc(F)c1)c1cc(C(=O)N(C)C)cc2c(=O)cc(N3CCOCC3)oc12 (10 µM)
inactive: IRAK3 = 0 | JAK1 = 0 | LCK 0 | LIMK1 = 0 | LIMK2 = 0 | LMTK2 = 0 | LYN 0 | MAP2K1 = 0 | MAP2K2 = 0 | MAP4K2 = 0
